The list shows a part of the results.
Target: OsWRKY34 (Oryza sativa, UniProt Q0JBA9 1-250)
Assay: protein-binding microarray (RPBM); PBS, 2% BSA, 51.3 ng/ul salmon testes DNA, 50 uM zinc acetate, 200 nM TF, 25 C, 1 h; high values mean tight binding
Conditions: protein: recombinant; tags: N-terminal polyhistidine and DsRed monomer fusion (pET32a); label: CyDye5-dUTP incorporated in the synthesized complementary strand; 3' TTTTT single-stranded linker to array surface; dsDNA, one strand shown
Outline: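 Transcription factors were each fused at the N-terminus to a polyhistidine tag plus DsRed and expressed in E. coli BL21-CodonPlus before Ni–NTA purification. Binding to a double-stranded custom Agilent array was carried out with 200 nM protein at 25 °C for 1 h in PBS, 2% BSA, salmon testes DNA and 50 µM zinc acetate. The binding signal is per-feature fluorescence intensity, in arbitrary units, on an Axon 4000B scanner.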

Chains of the proteins cited; added tags and fusions are not shown.
UniProt Q0JBA9, entry or part of it: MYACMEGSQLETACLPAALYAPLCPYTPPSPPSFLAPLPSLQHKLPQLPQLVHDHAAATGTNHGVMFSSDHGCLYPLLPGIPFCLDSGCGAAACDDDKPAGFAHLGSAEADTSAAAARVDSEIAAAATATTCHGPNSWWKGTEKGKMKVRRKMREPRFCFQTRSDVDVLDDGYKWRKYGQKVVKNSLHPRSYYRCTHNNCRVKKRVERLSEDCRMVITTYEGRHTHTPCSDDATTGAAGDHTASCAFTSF

Sequence	binding signal
TATATATATATATATATATATATATATATATATAAAGAGACGGAGTCACCTAGTGCAG	11100 fluorescence intensity (a.u.)
GGGTCCCACTAATTACTGCATTCTTTACCATTGTTCCAACCGGAGTCACCTAGTGCAG	9560 fluorescence intensity (a.u.)
GGTTTTGATGTTTGTTTTGGTTTTTGGATGTTTGCGAATTCGGAGTCACCTAGTGCAG	8280 fluorescence intensity (a.u.)
TGAGCCATCGAGATTAATCTCGCCGTTTCTTCTGTAGTCGCGGAGTCACCTAGTGCAG	10900 fluorescence intensity (a.u.)
GGTGTCCTTCCAAATTCGACTCTGCATCCCATACGCACACCGGAGTCACCTAGTGCAG	8320 fluorescence intensity (a.u.)
GTAGTCGCGTGGTCTCTGCAGGTCCACCCGCCCAATCATTCGGAGTCACCTAGTGCAG	8670 fluorescence intensity (a.u.)
CCGCTCTGATTCGCAAACTATAACACCAAACAAACGGGCGCGGAGTCACCTAGTGCAG	20100 fluorescence intensity (a.u.)
GCAGGCGGAGGCGGAGGCGGAGGCGGAGGCGGCGGCGGCGCGGAGTCACCTAGTGCAG	8950 fluorescence intensity (a.u.)
TTCCTTGTCCCATTACTACATCGTCGTTGTGTTCAACTATCGGAGTCACCTAGTGCAG	10600 fluorescence intensity (a.u.)
CTCGGGGCTTCTCCGGCTCCACCGCTCGCGCGCGTCCTTTCGGAGTCACCTAGTGCAG	9370 fluorescence intensity (a.u.)
TCTTTGTGTTCTTGCTCTCTCTCACCATTACACGTCGAATCGGAGTCACCTAGTGCAG	10300 fluorescence intensity (a.u.)
CTCCTTTACCAACATACCTACGCATTAGTTTTATTATAAACGGAGTCACCTAGTGCAG	8080 fluorescence intensity (a.u.)
CCCTACCTAGGGTAGGGTAGGGGTAGGGGTAGGGTTGATACGGAGTCACCTAGTGCAG	11900 fluorescence intensity (a.u.)
TTGTGTTTTTTTTTCTCTTTCTTTTTCTTTTTATTTTCACCGGAGTCACCTAGTGCAG	10900 fluorescence intensity (a.u.)
TTTCTCTCCACCACATATCTTCGTTCCTCAACCAGCGACGCGGAGTCACCTAGTGCAG	8650 fluorescence intensity (a.u.)
AAAGAAAACTACTCACATACTGTATCATCTTTATTCTTGCCGGAGTCACCTAGTGCAG	8660 fluorescence intensity (a.u.)
AAGCACTCCACCTCTCACCACCGCAAGTCCGTAACCAACTCGGAGTCACCTAGTGCAG	10000 fluorescence intensity (a.u.)
CTCACAACCGTCGCCGTCGCACGCCTACCCCGTCCCTCCGCGGAGTCACCTAGTGCAG	8130 fluorescence intensity (a.u.)
AGTTTGTACAACATCTTTTTTTTGTTTCAGTTCGTTTCTTCGGAGTCACCTAGTGCAG	8110 fluorescence intensity (a.u.)
GGCCTGCCCAGTCCAGAGAGAAGGGTGTGTGTGTTTGTGACGGAGTCACCTAGTGCAG	8610 fluorescence intensity (a.u.)
TACTTCCTGTATATACTTTTGCTTCATTCCTTATAATAGTCGGAGTCACCTAGTGCAG	11400 fluorescence intensity (a.u.)

Taken from above.
For binding signal, AAGCACTCCACCTCTCACCACCGCAAGTCCGTAACCAACTCGGAGTCACCTAGTGCAG shows 10000 fluorescence intensity (a.u.)
For binding signal, TGAGCCATCGAGATTAATCTCGCCGTTTCTTCTGTAGTCGCGGAGTCACCTAGTGCAG shows 10900 fluorescence intensity (a.u.)
For binding signal, CTCCTTTACCAACATACCTACGCATTAGTTTTATTATAAACGGAGTCACCTAGTGCAG shows 8080 fluorescence intensity (a.u.)

(further entries)

Sequence	binding signal
TCGTTCTTGTCGATCTCTGTGTGTGTTCTTCGTCGTCGTCCGGAGTCACCTAGTGCAG	8190 fluorescence intensity (a.u.)
TAGTGTTTCTTGGCGGCAATGGTTTCTTTTCTCCTTTGACCGGAGTCACCTAGTGCAG	9970 fluorescence intensity (a.u.)
GCAACTCACGGTCACGGCCACCTCTTCAGCTTTACTTCCTCGGAGTCACCTAGTGCAG	10800 fluorescence intensity (a.u.)
TCAACATGGCTGCCATCTACTGAGGTTCATTTTTCAGGTTCGGAGTCACCTAGTGCAG	9510 fluorescence intensity (a.u.)
ACGCCGCTCACACTCTGCCTATCTATTTGCATGGCATACTCGGAGTCACCTAGTGCAG	13200 fluorescence intensity (a.u.)
CCAACCGTCCTCCGGTCTCTCCTGTTCTTCGCTCGATCCTCGGAGTCACCTAGTGCAG	11300 fluorescence intensity (a.u.)
GGCAATCAACTTGTGGCAAGGCGTGTGTGGTTTAAATATACGGAGTCACCTAGTGCAG	8320 fluorescence intensity (a.u.)
GTGGGTGTTTGCGAGCTTTTGTTCGTATGCTTTTTTACTTCGGAGTCACCTAGTGCAG	9960 fluorescence intensity (a.u.)
CCTACTTTCTTAATAACCGTATCCAACCCTATAACTTCTTCGGAGTCACCTAGTGCAG	8390 fluorescence intensity (a.u.)
GTCTATTTAATCCTGTATCACGCCCAGATTCCTGAGTCCACGGAGTCACCTAGTGCAG	8450 fluorescence intensity (a.u.)
CAACGACGTGGGCTCGCGACTCCATCTTCCAGGCCTGCCCCGGAGTCACCTAGTGCAG	11100 fluorescence intensity (a.u.)
CTTCCTCGCCGGCTCGCGCGGATTCGATGGGTTGTTGATTCGGAGTCACCTAGTGCAG	8550 fluorescence intensity (a.u.)
CCTTTTCTCCTCTTTCTTTCTTCACTAATCAATCAACTTACGGAGTCACCTAGTGCAG	8940 fluorescence intensity (a.u.)
TTTCTTCTCATCTAAGTAATGTGGGTGTTTCTTTGGGTTCCGGAGTCACCTAGTGCAG	9080 fluorescence intensity (a.u.)
ATTATTTTGGATCACCCTTTGTTTCCAATTTTTTCACTTTCGGAGTCACCTAGTGCAG	10400 fluorescence intensity (a.u.)
GAACAAACTTTCAAAAACATGTACTCTCTTTGTTTCATATCGGAGTCACCTAGTGCAG	10600 fluorescence intensity (a.u.)
CGCGCGGTCTCGCACTTTTATCACGTGATACCGTCCGTGACGGAGTCACCTAGTGCAG	9840 fluorescence intensity (a.u.)
CACCTTACTCGCGCCGCGCGCGCCGCCGTCGACGGCAGCCCGGAGTCACCTAGTGCAG	8230 fluorescence intensity (a.u.)
AACTTAACAGCTCAAGCTTAATTCTGGGCCAAATTCACCACGGAGTCACCTAGTGCAG	9090 fluorescence intensity (a.u.)
TTCGCTCCGTTTTCATCCCTATTTGCAAGTACTGTACATTCGGAGTCACCTAGTGCAG	9640 fluorescence intensity (a.u.)
CTTTTTGTTTTCTTGATTATAGCATCCCAGAGTTTATGTTCGGAGTCACCTAGTGCAG	9320 fluorescence intensity (a.u.)

From paper PMC7819943, “Rice protein-binding microarrays: a tool to detect cis-acting elements near promoter regions in rice”
